Results: article PMC9547009
No constants are given. Whether binding was seen depends on the method and setting. In cells and extracts the contact can be indirect. A result given as binding can be weak or reduced; the word gives no strength.

Chains of the proteins cited; added tags and fusions are not shown. Lines headed by an entry give the natural chain unless they say otherwise; changes in a name come on top.
UniProt A0A8F2YJE5: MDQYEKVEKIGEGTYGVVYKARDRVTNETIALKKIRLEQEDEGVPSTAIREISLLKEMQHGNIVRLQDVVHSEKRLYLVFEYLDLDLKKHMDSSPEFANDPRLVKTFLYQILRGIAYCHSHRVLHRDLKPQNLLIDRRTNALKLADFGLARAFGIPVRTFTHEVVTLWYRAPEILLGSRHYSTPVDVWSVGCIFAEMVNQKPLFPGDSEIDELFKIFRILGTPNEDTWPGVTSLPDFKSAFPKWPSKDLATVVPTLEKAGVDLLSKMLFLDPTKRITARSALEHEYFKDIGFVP
UniProt A0A8F3BRK2: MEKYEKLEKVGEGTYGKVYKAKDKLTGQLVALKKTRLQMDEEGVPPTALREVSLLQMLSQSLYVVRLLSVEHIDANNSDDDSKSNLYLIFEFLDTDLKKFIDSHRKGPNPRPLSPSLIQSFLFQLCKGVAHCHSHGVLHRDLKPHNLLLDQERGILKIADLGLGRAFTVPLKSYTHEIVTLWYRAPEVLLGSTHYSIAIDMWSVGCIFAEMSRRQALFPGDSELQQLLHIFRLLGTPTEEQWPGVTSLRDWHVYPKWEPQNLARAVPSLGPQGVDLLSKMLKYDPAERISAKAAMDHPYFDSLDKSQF
UniProt A0A8F3BS08: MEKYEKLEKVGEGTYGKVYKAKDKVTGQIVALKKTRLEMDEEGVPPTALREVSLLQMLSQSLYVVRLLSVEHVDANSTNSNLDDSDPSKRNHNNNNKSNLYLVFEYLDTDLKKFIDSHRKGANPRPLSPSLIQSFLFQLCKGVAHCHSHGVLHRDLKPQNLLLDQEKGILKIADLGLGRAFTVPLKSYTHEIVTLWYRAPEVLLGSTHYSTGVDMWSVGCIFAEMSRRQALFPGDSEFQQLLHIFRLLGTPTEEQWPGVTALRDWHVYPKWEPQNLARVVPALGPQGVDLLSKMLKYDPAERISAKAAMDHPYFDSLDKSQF
UniProt A0A8F3BPS4: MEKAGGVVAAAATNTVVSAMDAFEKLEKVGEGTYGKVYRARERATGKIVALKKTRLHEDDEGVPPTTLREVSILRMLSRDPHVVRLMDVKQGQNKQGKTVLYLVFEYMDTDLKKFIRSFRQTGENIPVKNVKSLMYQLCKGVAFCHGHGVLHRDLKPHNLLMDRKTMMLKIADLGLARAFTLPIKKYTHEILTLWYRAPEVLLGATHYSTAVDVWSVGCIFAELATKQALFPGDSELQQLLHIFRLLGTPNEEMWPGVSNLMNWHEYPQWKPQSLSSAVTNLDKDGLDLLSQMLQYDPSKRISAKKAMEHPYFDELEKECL
UniProt A0A8F3BQA3: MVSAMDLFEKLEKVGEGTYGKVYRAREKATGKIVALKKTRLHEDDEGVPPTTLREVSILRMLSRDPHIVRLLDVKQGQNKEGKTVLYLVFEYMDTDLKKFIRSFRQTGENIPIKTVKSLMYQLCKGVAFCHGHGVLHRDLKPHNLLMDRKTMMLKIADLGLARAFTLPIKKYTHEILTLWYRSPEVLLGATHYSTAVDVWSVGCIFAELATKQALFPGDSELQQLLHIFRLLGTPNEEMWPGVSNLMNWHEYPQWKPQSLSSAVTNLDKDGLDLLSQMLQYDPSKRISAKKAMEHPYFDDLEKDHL
UniProt A0A8F2YJ43: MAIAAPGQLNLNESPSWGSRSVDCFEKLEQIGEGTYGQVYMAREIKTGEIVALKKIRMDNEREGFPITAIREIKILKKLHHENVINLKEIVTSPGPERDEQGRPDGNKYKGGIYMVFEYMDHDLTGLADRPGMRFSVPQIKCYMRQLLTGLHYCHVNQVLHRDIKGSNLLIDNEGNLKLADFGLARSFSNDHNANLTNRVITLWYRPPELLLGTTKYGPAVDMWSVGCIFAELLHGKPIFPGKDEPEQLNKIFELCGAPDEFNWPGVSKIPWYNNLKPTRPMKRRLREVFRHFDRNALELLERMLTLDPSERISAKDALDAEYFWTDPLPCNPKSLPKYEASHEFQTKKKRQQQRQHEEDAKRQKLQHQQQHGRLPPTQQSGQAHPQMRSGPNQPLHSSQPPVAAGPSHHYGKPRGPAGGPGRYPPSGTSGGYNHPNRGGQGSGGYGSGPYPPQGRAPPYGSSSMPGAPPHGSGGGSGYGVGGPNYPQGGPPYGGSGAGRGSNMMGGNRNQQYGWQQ
UniProt A0A8F2YJ19: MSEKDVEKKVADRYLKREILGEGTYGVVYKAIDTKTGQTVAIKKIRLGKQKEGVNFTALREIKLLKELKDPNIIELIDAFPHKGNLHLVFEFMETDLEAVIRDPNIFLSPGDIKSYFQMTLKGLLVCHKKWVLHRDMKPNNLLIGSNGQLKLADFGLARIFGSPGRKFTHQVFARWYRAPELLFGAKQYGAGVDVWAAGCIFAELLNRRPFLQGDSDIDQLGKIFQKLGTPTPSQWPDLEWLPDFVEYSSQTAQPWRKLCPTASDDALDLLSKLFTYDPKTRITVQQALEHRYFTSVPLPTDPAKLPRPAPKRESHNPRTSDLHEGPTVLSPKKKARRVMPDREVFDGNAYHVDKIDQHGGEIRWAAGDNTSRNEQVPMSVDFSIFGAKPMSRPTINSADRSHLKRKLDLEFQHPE
UniProt A0A8F2YJ26: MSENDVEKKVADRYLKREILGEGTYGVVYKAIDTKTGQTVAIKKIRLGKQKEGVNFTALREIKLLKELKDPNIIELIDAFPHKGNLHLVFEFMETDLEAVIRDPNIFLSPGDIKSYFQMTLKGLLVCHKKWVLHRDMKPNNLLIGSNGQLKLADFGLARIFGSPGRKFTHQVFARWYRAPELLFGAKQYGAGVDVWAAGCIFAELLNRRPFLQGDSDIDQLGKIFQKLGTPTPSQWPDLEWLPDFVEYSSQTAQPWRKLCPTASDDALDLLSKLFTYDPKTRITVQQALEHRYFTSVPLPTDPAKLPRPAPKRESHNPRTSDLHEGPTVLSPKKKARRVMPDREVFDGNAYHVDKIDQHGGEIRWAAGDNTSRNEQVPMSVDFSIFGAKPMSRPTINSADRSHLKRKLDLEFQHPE
UniProt A0A8F2YJ49: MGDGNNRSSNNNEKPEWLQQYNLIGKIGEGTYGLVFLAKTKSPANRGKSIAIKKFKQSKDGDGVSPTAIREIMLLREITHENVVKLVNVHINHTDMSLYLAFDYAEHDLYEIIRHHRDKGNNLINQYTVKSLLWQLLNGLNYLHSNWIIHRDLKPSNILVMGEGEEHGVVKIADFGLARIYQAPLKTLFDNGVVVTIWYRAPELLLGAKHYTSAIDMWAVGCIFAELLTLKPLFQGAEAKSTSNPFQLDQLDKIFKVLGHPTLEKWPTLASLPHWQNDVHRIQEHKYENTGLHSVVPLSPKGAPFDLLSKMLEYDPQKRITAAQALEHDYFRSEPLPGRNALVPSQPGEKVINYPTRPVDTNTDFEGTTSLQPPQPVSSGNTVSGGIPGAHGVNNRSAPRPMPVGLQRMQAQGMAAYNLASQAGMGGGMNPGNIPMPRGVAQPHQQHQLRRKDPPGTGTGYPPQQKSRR
UniProt A0A8F3BQL1: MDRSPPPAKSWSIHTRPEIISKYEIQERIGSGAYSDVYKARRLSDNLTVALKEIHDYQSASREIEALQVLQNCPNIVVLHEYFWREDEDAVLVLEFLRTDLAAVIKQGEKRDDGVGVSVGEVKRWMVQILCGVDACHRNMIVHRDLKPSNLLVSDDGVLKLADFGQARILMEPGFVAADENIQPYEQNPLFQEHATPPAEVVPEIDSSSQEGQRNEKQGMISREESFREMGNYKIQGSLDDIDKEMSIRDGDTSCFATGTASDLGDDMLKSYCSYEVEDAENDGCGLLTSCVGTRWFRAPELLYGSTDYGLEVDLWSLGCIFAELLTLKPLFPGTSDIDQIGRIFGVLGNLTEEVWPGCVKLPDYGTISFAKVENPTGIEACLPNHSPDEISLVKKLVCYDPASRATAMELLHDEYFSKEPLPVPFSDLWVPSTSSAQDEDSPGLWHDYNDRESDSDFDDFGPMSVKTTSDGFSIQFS
UniProt A0A8F2YJH9: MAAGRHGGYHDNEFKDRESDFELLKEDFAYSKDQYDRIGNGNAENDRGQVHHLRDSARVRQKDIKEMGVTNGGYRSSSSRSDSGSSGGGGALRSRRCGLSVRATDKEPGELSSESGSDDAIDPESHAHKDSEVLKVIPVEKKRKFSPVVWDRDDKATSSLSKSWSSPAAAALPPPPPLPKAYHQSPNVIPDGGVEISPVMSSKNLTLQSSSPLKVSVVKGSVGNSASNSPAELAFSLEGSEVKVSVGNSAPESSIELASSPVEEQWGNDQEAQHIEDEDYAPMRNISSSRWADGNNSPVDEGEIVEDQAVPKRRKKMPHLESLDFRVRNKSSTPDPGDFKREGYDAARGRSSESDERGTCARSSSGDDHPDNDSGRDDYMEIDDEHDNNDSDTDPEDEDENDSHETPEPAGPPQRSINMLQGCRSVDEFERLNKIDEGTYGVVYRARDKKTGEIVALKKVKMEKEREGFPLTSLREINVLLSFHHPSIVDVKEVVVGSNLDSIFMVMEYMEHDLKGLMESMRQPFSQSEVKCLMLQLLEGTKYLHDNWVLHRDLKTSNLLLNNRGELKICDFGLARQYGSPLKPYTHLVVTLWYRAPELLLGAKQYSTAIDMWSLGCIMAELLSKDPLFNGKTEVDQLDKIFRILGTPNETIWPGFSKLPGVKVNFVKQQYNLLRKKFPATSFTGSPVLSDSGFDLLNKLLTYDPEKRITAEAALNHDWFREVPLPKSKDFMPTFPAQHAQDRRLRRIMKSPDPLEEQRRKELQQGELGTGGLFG
UniProt A0A8F2YJJ4: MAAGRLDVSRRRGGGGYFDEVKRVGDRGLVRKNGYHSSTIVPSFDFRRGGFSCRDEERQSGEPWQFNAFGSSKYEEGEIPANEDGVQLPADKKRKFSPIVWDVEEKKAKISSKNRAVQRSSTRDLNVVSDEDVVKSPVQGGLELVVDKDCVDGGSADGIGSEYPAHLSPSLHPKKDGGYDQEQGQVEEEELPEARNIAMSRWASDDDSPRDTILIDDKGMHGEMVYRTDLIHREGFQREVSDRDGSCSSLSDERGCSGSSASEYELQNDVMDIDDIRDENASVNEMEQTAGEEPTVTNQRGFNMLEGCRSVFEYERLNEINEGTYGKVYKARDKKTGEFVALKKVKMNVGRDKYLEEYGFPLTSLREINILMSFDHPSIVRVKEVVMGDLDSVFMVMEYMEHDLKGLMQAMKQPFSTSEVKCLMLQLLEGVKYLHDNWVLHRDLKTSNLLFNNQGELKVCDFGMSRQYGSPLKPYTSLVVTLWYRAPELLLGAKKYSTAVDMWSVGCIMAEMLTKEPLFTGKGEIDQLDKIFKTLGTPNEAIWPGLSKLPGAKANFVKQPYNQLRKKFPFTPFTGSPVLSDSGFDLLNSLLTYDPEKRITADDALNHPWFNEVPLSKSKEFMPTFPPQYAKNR

target: YFP^C-PtoCYCD3;3 (Populus tomentosa); experiment: split reporter; BiFC: YFP^N-PtoCDKs (pSPYNE(R)173) and YFP^C-PtoCYCD (pSPYCE(MR)) co-expressed in tobacco leaf lower epidermal cells by Agrobacterium GV3101; confocal microscopy after 48 h, excitation 488 nm; NLS-mCherry as nuclear marker

binding, binds:
YFP^N-PtoCDKA;1 (from UniProt A0A8F2YJE5)
YFP^N-PtoCDKB1;1 (from UniProt A0A8F3BRK2)
YFP^N-PtoCDKB1;2 (from UniProt A0A8F3BS08)
YFP^N-PtoCDKB2;1 (from UniProt A0A8F3BPS4)
YFP^N-PtoCDKB2;2 (from UniProt A0A8F3BQA3)
YFP^N-PtoCDKC;2 (from UniProt A0A8F2YJ43)
YFP^N-PtoCDKD;1 (from UniProt A0A8F2YJ19)
YFP^N-PtoCDKD;2 (from UniProt A0A8F2YJ26)
YFP^N-PtoCDKE;2 (from UniProt A0A8F2YJ49)
YFP^N-PtoCDKF;1 (from UniProt A0A8F3BQL1)
YFP^N-PtoCDKG;3 (from UniProt A0A8F2YJH9)
YFP^N-PtoCDKG;4 (from UniProt A0A8F2YJJ4)
